# Data source: PubChem BioAssay AID602196 (INSERM, 2012)
# Assay: 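Genes whose knock-down alters cisplatin killing of lung cancer cells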
# Cells: human A549 lung cancer cells
# Reagents: siRNA pair against human genes
# Timing: 48 h transfection before cisplatin; time from cisplatin to read-out not stated
# Conditions: cisplatin at a dose killing half of control-siRNA cells; exact dose and duration not given
# Read-out: 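Shift in cisplatin death relative to control siRNA, from -50 (all cells die) to +50 (no cells die); siRNAs harmful on their own scored 0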
# Reading the numbers: two-siRNA summed score (-2 to +2): higher = both siRNAs protect from cisplatin killing; -2 means both sensitise; mean protection from cisplatin (shift in death) and protection from cisplatin (shift in death), siRNA C and protection from cisplatin (shift in death), siRNA D: higher = protection from cisplatin killing
# Rule for the call: 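siRNAs harmful alone (LDH or WST-1) get 0; others get +1 for less and -1 for more cisplatin killing; genes are active when the two siRNAs give the same sign, summing to ±2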
# Calls: active = both siRNAs shift cisplatin killing the same way; inactive = no consistent shift, or siRNA harmful alone
# In all, the deposit lists about 23,000 reagents; this is an unselected part. 455 of them (2%) count as active. 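Active includes both protection and sensitisation; some change values fall well beyond the stated -50 to +50 range.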 Unmarked entries are inactive. Not stated in the record: the amount of reagent.
Target gene,PubChem SID,two-siRNA summed score (-2 to +2),mean protection from cisplatin (shift in death) (%),"protection from cisplatin (shift in death), siRNA C (%)","protection from cisplatin (shift in death), siRNA D (%)"
OR7G3,SID131503421,0,-10.2,-3.1,-17.3
SPINK6,SID131515883,0,9.8,2.9,16.7
DORIP1,SID131518265,0,17.7,16.5,18.9
AURKB,SID131503396,0,-10.4,-9.8,-10.9
KRTAP13-2,SID131508791,0,1.5,0.8,2.2
PEG3,SID131508705,0,1.3,12.3,-9.6
ZNF311,SID131520194,1,9,3.7,14.3
EBF1,SID131509388,0,2.1,-14.2,18.4
SLC38A12,SID131517943,0,15.5,4.1,26.9
ABCC9,SID131514577,0,8,6.5,9.4
CAPZA3,SID131504348,0,-5.7,-1.5,-9.9
ZNF362,SID131510279,0,3.1,-6.4,12.5
PDGFA,SID131507917,0,0.4,-4.5,5.3
SCAF1,SID131500895,-1,-14.5,-27.9,-1.1
ZNF428,SID131507506,0,-0.1,0.8,-0.9
SS18L1,SID131521201,1,12.6,14.8,10.4
OAT,SID131521873,1,15.2,11.1,19.3
CUL4A,SID131519192,1,3.6,14.2,-7
LOC390827,SID131511621,0,4.5,9.1,-0.1
SLC7A3,SID131522305,1,17.6,24.1,11.2
LOC401896,SID131518754,0,26.2,8.3,44
HSPB6,SID131520875,1,11.4,15.3,7.5
TLE4,SID131519973,1,8.2,-3,19.4
TM6SF2,SID131515957,0,10,2.4,17.5
LOC388177,SID131520499,1,10.1,7.2,12.9
CDC42EP3,SID131516416,0,10.8,9.1,12.5
LOC285018,SID131518865,0,33.7,12.6,54.8
CHMP6,SID131522161,1,16.6,17,16.2
MYOZ2,SID131509523,0,2.2,-4.3,8.8
RAMP2,SID131501097,-1,-12.3,-12.3,-12.4
PIERCE1,SID131520383,1,9.7,14.3,5.1
TEDC1,SID131504602,0,-5,0.1,-10
ESF1,SID131516378,0,10.8,9.1,12.4
CHCHD10,SID131518774,0,26.8,27.9,25.8
HAND1,SID131505079,0,-3.8,-5.5,-2.2
LOC442582,SID131520952,1,11.7,8.8,14.5
FTH1,SID131501358,-1,-10.2,0.9,-21.4
MAGEA10,SID131511668,0,4.6,16.5,-7.3
CNFN,SID131505453,0,-3.1,3.5,-9.8
FAM163A,SID131511560,0,4.5,-5.1,14.1
H2AC7,SID131504616,0,-4.9,-8.1,-1.7
LOC440312,SID131507486,0,-0.1,-7,6.9
CSHL1,SID131506021,0,-2.1,0.8,-5.1
LOC402670,SID131512591,0,5.7,-6.2,17.5
AK7,SID131508679,0,1.3,7.4,-4.8
DERA,SID131504187,0,-6.2,-4.7,-7.7
LOC440283,SID131511050,0,3.9,1.4,6.5
CRELD2,SID131512461,0,5.5,9.9,1.1
NUP37,SID131516150,0,10.3,6,14.7
LOC389028,SID131510860,0,3.7,3.1,4.3
OTUD7A,SID131512216,0,5.2,10.5,0
NYAP2,SID131516142,0,10.3,20.6,0
STH,SID131511800,0,4.8,5.4,4.1
SPRYD7,SID131513179,0,6.3,-4.5,17.1
OR5B21,SID131522261,1,17.2,23.8,10.6
ITGAX,SID131501669,-1,-8.2,14.2,-30.7
CYP20A1,SID131507584,0,0,14.8,-14.8

Looked up above.
Result of SPINK6 [SID131515883] in “protection from cisplatin (shift in death), siRNA C (%)”: 2.9
Value of STH [SID131511800] under “protection from cisplatin (shift in death), siRNA D (%)”: 4.1
RAMP2 [SID131501097], two-siRNA summed score (-2 to +2) = -1
Value of LOC285018 [SID131518865] under “protection from cisplatin (shift in death), siRNA C (%)”: 12.6
Under “two-siRNA summed score (-2 to +2)”, FAM163A [SID131511560] has 0
Result of CNFN [SID131505453] under “two-siRNA summed score (-2 to +2)”: 0
